Reference: patent publication US20210278393A1, “METHOD FOR MEASURING SINGLE-CELL BIOMASS TO PREDICT CLINICAL OUTCOMES FOR STEM CELL TRANSPLANT PATIENTS” (VIRGINIA COMMONWEALTH UNIVERSITY, priority 2016, published 2021)
At least one compound was matched to its structure with a doubt left. Some results were stated once for a whole list of compounds, not compound by compound.

Key:
M249R4 cells [1] = test: HSLCI kinase inhibitor screen in Vemurafenib-resistant melanoma; assay type: cell-based, human
Procedure: Kinase inhibitor screen. 1× Dose Determination: For each inhibitor, a 1× dose was calculated. Briefly, recommended clinical doses were obtained from published package inserts. Doses were matched to peak serum concentrations (Cmax (ng/mL)) for each inhibitor as measured in clinical trials in which the recommended doses were utilized. Using each drugs' molecular weight, peak serum concentration values were converted to uM units and designated as 1×. […] Cobimetinib and Binimetinib were supplied as dry powders and suspended in DMSO to a final stock concentration of 10 mM upon receipt. Cell Preparation and Dosing: M249R4 cells were plated in a 24-well optical glass-bottomed plate (Cat. #P24-0-N, Cellvis) at 1×10^4 cells/ml (total of 1 mL in each of 24 wells) in media (DMEM, 10% Fetal Bovine Serum, 2 mM L-Glutamine) containing 1 uM Vemurafenib. Plated cells were allowed to adhere overnight at 37° C., 5% CO2. All cells were washed with 1× phosphate-buffered saline, pH 7.4, and provided with fresh media. Immediately following washing and feeding, cells were dosed with inhibitors at dose-escalating concentrations and incubated under standard cell culture conditions for 24 hours. After incubation, cells were imaged for 10 hours using the HSLCI system.
These inhibitors target a spectrum of kinases (Table 2). […] For each targeted kinase inhibitor, a 1× dose was calculated to match the peak tolerated serum concentration (Cmax (ng/mL)), as measured in clinical trials. Our first assay screened all seven inhibitors at several concentrations to identify those that elicited the most apparent reduction in cell growth rates.

[2] = test system: parent melanoma lines (M229, M238, M249); test: Multi-day dose-escalation cell-counting assay; assay type: cell-based, human; conditions: 1.0 μM to 10.0 μM Vemurafenib
[3] = test system: matched resistant melanoma lines; test: Multi-day dose-escalation cell-counting assay; assay type: cell-based, human; conditions: 1.0 μM to 10.0 μM Vemurafenib
M249P cells = test: HSLCI/LCI population kinetic response (biomass growth rate); assay type: cell-based, human
M249R4 cells [4] = test: LCI population kinetic response (biomass growth rate); assay type: cell-based, human; conditions: Vemurafenib exposure (504 [sic])
[5] = test system: parental lines (M229P, M238P, and M249P); test: HSLCI Vemurafenib dose response (10-hour growth rate, 24-well); assay type: cell-based, human; conditions: 1 uM, 5 uM, 10 uM; 24 h incubation, 10 h imaging
[6] = test system: resistant lines (M229R5, M238R1, and M249R4); test: as above; assay type: cell-based, human; conditions: 1 uM, 5 uM, 10 uM; 24 h incubation, 10 h imaging
M229 = M229 BRAF V600E line; cited from earlier work
M238 = M238 BRAF V600E line; cited from earlier work
M249 = M249 BRAF V600E line; cited from earlier work

With `Cn1cnc2c(F)c(Nc3ccc(Br)cc3Cl)c(C(=O)NOCCO)cc21` [Selumetinib] the growth rate (M249R4 cells [1]; first assay, 0.1×) was “below 2%” and the dose response (M249R4 cells [1]; second assay, dosing range 0.05×-1×) was “robust dose responses”.
In the case of `CCCS(=O)(=O)Nc1ccc(F)c(C(=O)c2c[nH]c3ncc(-c4ccc(Cl)cc4)cc23)c1F` [Vemurafenib], the “replication with drug exposure (cell counting)” value [2] is reported as “slowed”, the “replication with drug exposure (cell counting)” value [3] is reported as “continued replicating” and the “time at which drug sensitivity was detectable” value (M249P cells; 5 μM Vemurafenib, HSLCI) is reported as “detectable as early as six hours”. For the same molecule, the “growth rate distribution per hour of exposure” value (M249P cells; Vemurafenib exposure (504 [sic]), LCI) was “decline below zero growth for most M249P cells”, the “growth rate distribution per hour of exposure” value (M249R4 cells [4]) was “almost all retained a net-positive growth rate” and the “growth inhibition vs vehicle DMSO” value [5] was “increasing growth inhibition at escalating drug concentrations”. The “growth inhibition vs vehicle DMSO” value [6] was “no growth inhibition”, the “growth relative to untreated control” value (M249R4 cells [1]; first assay, 24 h incubation, 10 h imaging) was “grew slightly faster than the untreated control” and the “growth relative to untreated control” value (M249R4 cells [1]; second assay, finer range of concentrations) was “grew slightly faster than the untreated control”. The IC50 (M229) was less than 1 µM, the IC50 (M238) was less than 1 µM and the IC50 (M249) was less than 1 µM.
With `CC(=O)Nc1cccc(-n2c(=O)n(C3CC3)c(=O)c3c(Nc4ccc(I)cc4F)n(C)c(=O)c(C)c32)c1` [Trametinib] the growth rate response (M249R4 cells [1]; first assay, 0.1×) was “did not elicit responses”.
For `O=C(c1ccc(F)c(F)c1Nc1ccc(I)cc1F)N1CC(O)([C@@H]2CCCCN2)C1` [Cobimetinib], the growth rate (M249R4 cells [1]; first assay, 0.1×) was “below 2%”.
